Measurements as given in patent publication EP1368050B1, “VIRUS DERIVED ANTIMICROBIAL PEPTIDES” (priority 2001, dated 2008).
At least one peptide structure holds a part that was inferred or is arguable (an end, a ring closure or a residue). Residues, ends and D or L forms follow the SMILES beside them.

Experiments:
Staphylococcus aureus = experiment: Bacterial lysis assay (broth dilution), minimal bactericidal concentration; type: cell-based
From the text: (§1) The assays for growth inhibition of a microbial target can be used to derive a minimum bactericidal concentration (MBC) value for the peptide, i.e., the concentration of peptide required to kill 99.9% of the microbial sample being tested. This value is well known to those in the art as representative of the effectiveness of a particular antimicrobial agent (e.g., an antibiotic) against a particular organism or group of organisms. In assays to detect the MBC of a peptide, growth inhibition of a bacterial population also can be measured with reference to the number of colony forming units (cfu) after exposure to a peptide relative to a control experiment without a peptide.
(§2) Bacterial lysis assay. Bacterial lysis assays were conducted in a manner similar to that described previously (Lehrer, R. I., M. E. Selsted, D. Szklarek, and F. J. 1983. Infect. Immun. 42: 10-4, 1983; Miller, M. A., R. F. Garry, J. M. Jaynes, and R. C. Montelaro, AIDS Res Hum Retroviruses 7: 511-519, 1991). Bacterial suspensions were cultured in Luria-Bertani Broth to mid-log growth phase and washed by two cycles of centrifugation and suspension in 10 mM phosphate buffer. […] Colonies of surviving bacteria (cfu, colony-forming units) were counted and compared to untreated controls to determine the amount of peptide-induced killing under each condition. […]

P. aeruginosa [1] = experiment: Solid phase (Affigel 15 column) bound peptide, killing of a bacterial suspension; type: cell-based; settings: peptide covalently attached to Affigel 15 resin; count prior to column exposure 1 x 10^6
[2] = Rabbit joint model of septic arthritis; type: in vivo, New Zealand white rabbit
[3] = Activity in the presence of synovial fluid; type: cell-based; settings: fluid derived from the joint synovium, Figure 10; synovial fluid impairs the activity
S. epidermidis = experiment: In vitro activity against S. epidermidis; type: cell-based
[4] = Solid phase (Affigel 15 column) bound peptide, killing of a bacterial suspension; type: cell-based, S. aureus; settings: peptide covalently attached to Affigel 15 resin; count prior to column exposure 1 x 10^6
HIV-1 (strain IIIB) = experiment: Suppression of HIV-1 infectivity (p24 antigen in PHA stimulated PBMCs); type: cell-based; settings: for reduction of HIV-1 infectivity (percent suppression): virions treated 30 min, p24 five days post infection, Figure 13
B. cepacia = experiment: Broth dilution killing assay against B. cepacia; type: cell-based, Burkholderia cepacia
P. aeruginosa [5] = experiment: Co-culture model of bacterial adherence: killing of bacteria bound to airway epithelial cells; type: cell-based; settings: increasing peptide concentrations, Figure 9
Psuedomonas aeruginosa = experiment: Bacterial lysis assay (broth dilution), minimal bactericidal concentration; type: cell-based, Pseudomonas aeruginosa; settings: 10 mM PB versus 10 mM PB containing 150 mM NaCl
From the text: as §1, §2

| Compound | activity in vitro (Staphylococcus aureus; in vitro) | Bacterial count from eluant (P. aeruginosa [1]) | colony forming units in joint fluid ([2]; 0, 50, 100 and 200 µM intraarticularly, 1h after instillation, compared with non-peptide treated joint, Figure 11) | bacterial load ([2]; two treatments of 150 µM at times 0 and 1h, 1 h post-treatment, compared with phosphate buffer) | activity in the presence of biologic fluids [3] | activity in vitro (S. epidermidis) | Bacterial count from eluant [4] | reduction of HIV-1 infectivity (percent suppression) (HIV-1 (strain IIIB); 10 µM) [%] | reduction of HIV-1 infectivity (percent suppression) (HIV-1 (strain IIIB); 100 µM) [%] | inhibitory activity on HIV-1 infectivity (HIV-1 (strain IIIB); 1 and 0.1 µM) | bactericidal activity in low and physiologic salt (Staphylococcus aureus; 10 mM PB versus 10 mM PB containing 150 mM NaCl) | killing of B. cepacia genomovars (B. cepacia; 25 µM peptide, collection of genomovars, Figure 8, compared with LL37) | activity against B. cepacia (B. cepacia; clinical isolate, Figure 7, compared with LSA-5) | decrease in bacterial counts (P. aeruginosa [5]) | bactericidal activity in low and physiologic salt (Psuedomonas aeruginosa) |
| --- | --- | --- | --- | --- | --- | --- | --- | --- | --- | --- | --- | --- | --- | --- | --- |
| CC[C@H](C)[C@H](NC(=O)[C@H](C)NC(=O)[C@H](CCCNC(=N)N)NC(=O)[C@H](CS)NC(=O)[C@H](C)NC(=O)[C@H](CCCNC(=N)N)NC(=O)[C@H](CCC(N)=O)NC(=O)[C@@H](NC(=O)[C@@H](NC(=O)[C@H](CCCNC(=N)N)NC(=O)[C@@H](NC(=O)[C@@H](NC(=O)[C@@H](N)CCCNC(=N)N)C(C)C)[C@@H](C)CC)C(C)C)C(C)C)C(=O)N[C@@H](CCCNC(=N)N)C(=O)N[C@@H](Cc1c[nH]cn1)C(=O)N[C@H](C(=O)N[C@H](C(=O)N[C@@H](CCCNC(=N)N)C(=O)N[C@@H](CCCNC(=N)N)C(=O)N[C@H](C(=O)N[C@@H](CCCNC(=N)N)C(=O)N[C@@H](CCC(N)=O)C(=O)NCC(=O)N[C@@H](CC(C)C)C(=O)N[C@@H](CCCNC(=N)N)C(=O)N[C@@H](CCCNC(=N)N)C(=O)N[C@H](C(=O)N[C@@H](CC(C)C)C(=O)N[C@@H](CCCNC(=N)N)C(=O)N[C@H](C(=O)N[C@H](C(=O)O)C(C)C)C(C)C)[C@@H](C)CC)[C@@H](C)CC)C(C)C)[C@@H](C)CC [LSA-5] (H-RVIRVVQRACRAIRHIVRRIRQGLRRILRVV-OH) | highly active | 0 | dose-dependent decrease in colony forming units | significant decrease | can function in the presence of biologic fluids | highly active | 0 | 75 | ~100 | drop off | – | – | – | – | – |
| CC[C@H](C)[C@H](NC(=O)[C@H](C)NC(=O)[C@H](CCCNC(=N)N)NC(=O)[C@H](CS)NC(=O)[C@H](Cc1c[nH]c2ccccc12)NC(=O)[C@H](CCCNC(=N)N)NC(=O)[C@H](CCC(N)=O)NC(=O)[C@@H](NC(=O)[C@@H](NC(=O)[C@H](CCCNC(=N)N)NC(=O)[C@@H](NC(=O)[C@H](Cc1c[nH]c2ccccc12)NC(=O)[C@@H](N)CCCNC(=N)N)[C@@H](C)CC)C(C)C)C(C)C)C(=O)N[C@@H](CCCNC(=N)N)C(=O)N[C@@H](Cc1c[nH]cn1)C(=O)N[C@H](C(=O)N[C@@H](Cc1c[nH]c2ccccc12)C(=O)N[C@@H](CCCNC(=N)N)C(=O)N[C@@H](CCCNC(=N)N)C(=O)N[C@H](C(=O)N[C@@H](CCCNC(=N)N)C(=O)N[C@@H](CCC(N)=O)C(=O)NCC(=O)N[C@@H](CC(C)C)C(=O)N[C@@H](CCCNC(=N)N)C(=O)N[C@@H](CCCNC(=N)N)C(=O)N[C@@H](Cc1c[nH]c2ccccc12)C(=O)N[C@@H](CC(C)C)C(=O)N[C@@H](CCCNC(=N)N)C(=O)N[C@H](C(=O)N[C@H](C(=O)O)C(C)C)C(C)C)[C@@H](C)CC)[C@@H](C)CC [WLSA-5] (H-RWIRVVQRWCRAIRHIWRRIRQGLRRWLRVV-OH) | – | – | – | – | – | – | – | – | – | – | maintained its activity in low and physiologic salt conditions | equal to or better than LL-37 at killing all bacterial strains | significantly more active than LSA-5 | two orders of magnitude | maintained its activity in low and physiologic salt conditions |
